According to PubChem BioAssay AID2685 (National Center for Advancing Translational Sciences (NCATS), 2010):
The whole screen tested about 320,000 compounds, of which about 2,100 (0.66%) were called active. This list was built around the results that the source calls inconclusive (neither active nor inactive); the mix of calls is not that of the screen. Calls come from the whole dose curve; as a rule, active = well fitted inhibition curve with a large enough effect in the signal ratio, with a control signal flat (not every such curve was filed as active); inconclusive = small, poorly fitted or top-dose-only effect, or effect the other way, or a change in a side signal; inactive = flat fitted curve, though single readings scatter; the % refers to the signal ratio. A potency beside an inconclusive call is a rough fit, not a confirmed value.

Assay: qHTS Assay for Lipid Storage Modulators in Drosophila S3 Cells
Conditions: BODIPY lipid droplet fluorescence, 18-24 h, cells fed with added oleic acid; lipid storage change, negative = inhibition: at 46.1 µM (top of the series) unless noted
In short: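 Drosophila S3 cells got compounds at several concentrations plus oleic acid (400 uM solution). Laser-scanning cytometry with 488 nm excitation read lipid droplets at 500-530 nm and cells at 575-640 nm. Percent activity was relative to 20 uM Triacsin C.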
% is set by controls: 0 for no effect and ±100 for the full control effect; potency is the fitted concentration of half-maximal effect.

SMILES | lipid storage change, negative = inhibition | Potency
CCCNC(=O)C(Cc1ccc(C(F)(F)F)cc1)NC(=O)c1ccc2ccccc2n1 (configuration not stated) | inconclusive: -5.74% | –
Cn1cnnc1SCC(=O)c1cc2ccccc2o1 | inconclusive: 19.9% | –
C=CCn1cc(-c2ccccc2)cc(C#N)c1=O | inconclusive: -6.06% | –
COc1ccc(-n2c(=O)[nH]c3c(C(N)=O)nc(C4CCCCC4)nc32)cc1 | inconclusive: 12.3% [at 9.22 µM] | –
CCN(C(=O)CSc1nnc(C)n1Cc1ccccc1)C1CCS(=O)(=O)C1 (configuration not stated) | inconclusive: 14.8% | –
Cc1cccc(N2C(=O)N3[C@H](c4ccc(Br)cc4)[C@@H]4C(=O)N(C(C)(C)C)C(=O)[C@@H]4[C@]3(C)C2=O)c1 | inconclusive: 208% | –
CC1Cc2ccccc2N1C(=O)C1CCCN1S(=O)(=O)c1ccc(Cl)cc1 (configuration not stated) | inconclusive: 17.2% | –
COC(=O)c1ccc(COc2ccccc2/C=C(\C#N)C(=O)Nc2c(C)cccc2C)cc1 | – | inconclusive: 7.31 µM [falling, partial curve]
CCOC(=O)C1=C(COC(=O)C2(C)CC2(Cl)Cl)NC(=O)NC1c1ccc(OC)cc1 (configuration not stated) | inconclusive: 15.4% | –
CC(C)(C)c1cc(C(=O)N/N=C/c2ccc([N+](=O)[O-])s2)n[nH]1 | inconclusive: -18.1% | –
COCCCN1C(=O)c2ccc(C(=O)Nc3ccccc3Cl)cc2C1=O | inconclusive: -6.56% | –
COc1ccccc1NC(=O)c1cc2c(CO)cnc(C)c2oc1=Nc1cccc(C(N)=O)c1 | inconclusive: -2.82% | –
Cc1ccc(NC(=O)CSc2nnc(Cc3ccccc3)c(=O)[nH]2)c(C)c1 | inconclusive: 18.7% | –
CCCC(=O)Nc1ccc(NC(=O)c2cc3ccccc3o2)c(OC)c1 | inconclusive: -22.6% | –
CC(=O)c1cc(OC(=O)N2CCOCC2)ccc1OC(=O)N1CCOCC1 | inconclusive: 0.343% | –
O=C(Nc1ccc(Cl)cc1)C1C2CCC3C(CCC21)C3(Cl)Cl (configuration not stated) | inactive | –
CCOC(=O)N1CCN(S(=O)(=O)c2cc([N+](=O)[O-])ccc2C)CC1 | inconclusive: 144% | –
O=C(CCNC(=O)N1CC(=O)Nc2ccccc21)Nc1ccc(F)c(Cl)c1 | inconclusive: -28.8% | –
COC(=O)\C(C(C)=O)=C(/C=C/C=C/N(C)C)N(C)C | – | inconclusive: 1.3 µM [falling, full curve]
CC(=O)OCC(=O)Nc1ccc(SC(F)F)cc1 | inconclusive: 25.6% | –
CNC(=O)C1=C(C)NC(=S)NC1c1cccs1 (configuration not stated) | inconclusive: -64% | –
Cc1ccc(S(=O)(=O)NCc2ccccc2)cc1C(=O)N1CCCCCCC1 | inactive | –
CCOCCCNC(=O)CN1C(=O)COc2ccc(S(=O)(=O)N3CCC(C)CC3)cc21 | inconclusive: -62.6% | –
CN1CCN(C(=O)C2CC(=O)N(c3ccc(F)c(Cl)c3)C2)CC1 (configuration not stated) | – | inconclusive: 6.51 µM [falling, single point]
N#CSCC(=O)c1cccc2ccccc12 | – | inconclusive: 29.1 µM [falling, single point]
CCc1nnc(NC(=O)c2ccc(S(=O)(=O)N3CCCc4ccccc43)cc2)o1 | – | inconclusive: 0.146 µM [falling, full curve, poor fit]

Full records as entered above. Values in the order: lipid storage change, negative = inhibition | Potency
COc1ccccc1NC(=O)c1cc2c(CO)cnc(C)c2oc1=Nc1cccc(C(N)=O)c1 in the list: inconclusive: -2.82% | –
CCN(C(=O)CSc1nnc(C)n1Cc1ccccc1)C1CCS(=O)(=O)C1 (configuration not stated) in the list: inconclusive: 14.8% | –
CCCC(=O)Nc1ccc(NC(=O)c2cc3ccccc3o2)c(OC)c1 in the list: inconclusive: -22.6% | –

Next records

SMILES | lipid storage change, negative = inhibition | Potency
CCOC(=O)N1CCN(CC(=O)Nc2sccc2C#N)CC1 | inconclusive: -28% | –
Cc1cccc(C(=O)O)c1NC(=O)Cc1cccc2ccccc12 | inconclusive: 285% | –
CCOC(=O)C1=C(C)NC2=C(C(=O)CCC2)C1c1cccs1 (configuration not stated) | inactive | –
COc1cccc(-c2n[nH]c(=S)n2Cc2ccco2)c1 | inconclusive: 25.3% | –
COc1ccc(S(=O)(=O)N(C)CC(=O)NCc2ccccn2)cc1 | inconclusive: 400% | –
O=C(NCC1COc2ccccc2O1)c1ccc(Cl)c(S(=O)(=O)N2CCOCC2)c1 (configuration not stated) | inconclusive: -64.4% | –
CC(C)C[C@H](NC(=O)C1CC(=O)N(c2ccc(F)cc2)C1)C(=O)N1CCCCC1 (some centres not stated) | inconclusive: 23.5% | –
COc1cc(OC)cc(C(=O)NCC(=O)N2CC=C(c3ccccc3)CC2)c1 | inconclusive | –
Cc1ccc(C(=O)NCC(=O)OCC(=O)N(CC(C)C)c2c(N)n(Cc3ccccc3)c(=O)[nH]c2=O)cc1 | inconclusive: 10.5% | –
CCCCn1c(O)c(/C=C2\C=NN=C2c2ccccc2)sc1=S | inconclusive: -46.7% | –
Cn1c(=O)c2c(nc(Oc3ccccc3)n2C)n(C)c1=O | – | inconclusive: 1.16 µM [falling, partial curve]
OC(CN1CCOCC1)CN1CCOCC1 | inconclusive: -21.2% | –
CCC(=O)Nc1ccc(C(=O)N/N=C/c2ccccc2[N+](=O)[O-])cc1 | inconclusive: 19.3% | –
Cc1ncc([N+](=O)[O-])n1CC(=O)N/N=C/c1ccc(F)cc1 | – | inconclusive: 5.8 µM [falling, single point]
CCOC(=O)CC(NC(=O)c1ccccc1F)c1ccc(C)cc1 (configuration not stated) | inconclusive: 49.5% | –
CSCCC(NS(=O)(=O)c1ccc2ccccc2c1)C(=O)O (configuration not stated) | inconclusive: 21% | –
COc1nc(N(C)C)nc(N(C)c2cc(Cl)cc(Cl)c2)n1 | – | inconclusive: 29.1 µM [activator, single point]
COc1cccc2cc(C(=O)NCc3ccccc3Br)c(=O)oc12 | inactive | –
CN(C)C(=O)CCC(=O)N1CCCC(C(=O)c2ccc(C(F)(F)F)cc2)C1 (configuration not stated) | inconclusive: -3.96% | –
COc1ccc(C(F)(F)F)cc1N/C=C\c1nnnn1-c1ccc(C)cc1 | inconclusive: -41.6% | –
COc1ccc(OCc2nn[nH]n2)cc1 | – | inconclusive: 29.1 µM [activator, single point]
Cc1ccnc(NS(=O)(=O)c2cccc([N+](=O)[O-])c2)c1 | inactive | –
COc1cc(C(c2nnnn2C(C)(C)C)N2CCN(c3nc4ccccc4s3)CC2)ccc1O (configuration not stated) | inconclusive: 31.7% | –
COc1ccc(C(=O)COC(=O)CCn2nnc(-c3cccc(O)c3OC)n2)cc1 | inconclusive: -44.1% | –
N#CCC(=O)N/N=C/c1ccc(OC2CSC2)cc1 | inconclusive: 9.07% | –
COc1ccc(C)cc1NC(=O)COC(=O)c1ccc(OCc2ccc(Cl)cc2Cl)c(OC)c1 | inconclusive: 22.8% | –
